From PMC7447710
No constants are given. Whether binding was seen depends on the method and setting. In cells and extracts the contact can be indirect. Some entries that bind do so weakly or less than the wild type.

Sequences of proteins named here, by UniProt entry; tags and fusion partners are left off.
UniProt P19785: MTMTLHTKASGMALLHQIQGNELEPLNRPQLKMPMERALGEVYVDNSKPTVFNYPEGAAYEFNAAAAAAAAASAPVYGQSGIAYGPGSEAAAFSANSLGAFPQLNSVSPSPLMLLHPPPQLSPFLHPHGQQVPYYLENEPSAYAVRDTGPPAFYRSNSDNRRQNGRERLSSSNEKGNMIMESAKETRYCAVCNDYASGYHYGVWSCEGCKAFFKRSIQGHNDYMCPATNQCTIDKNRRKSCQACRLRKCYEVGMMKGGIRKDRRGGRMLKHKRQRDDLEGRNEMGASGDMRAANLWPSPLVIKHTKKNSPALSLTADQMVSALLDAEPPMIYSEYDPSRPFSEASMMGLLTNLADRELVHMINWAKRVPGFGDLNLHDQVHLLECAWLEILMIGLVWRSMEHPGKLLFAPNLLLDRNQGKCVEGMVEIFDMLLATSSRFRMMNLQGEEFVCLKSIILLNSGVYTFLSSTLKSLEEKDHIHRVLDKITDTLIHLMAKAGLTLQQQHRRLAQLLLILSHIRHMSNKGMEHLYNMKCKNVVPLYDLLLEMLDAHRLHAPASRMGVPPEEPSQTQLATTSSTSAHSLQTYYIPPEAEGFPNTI

Molecular target: T1, Nup133 (mouse (endogenous in primary OPCs)) (UniProt Q8R0G9)
T1 sequence: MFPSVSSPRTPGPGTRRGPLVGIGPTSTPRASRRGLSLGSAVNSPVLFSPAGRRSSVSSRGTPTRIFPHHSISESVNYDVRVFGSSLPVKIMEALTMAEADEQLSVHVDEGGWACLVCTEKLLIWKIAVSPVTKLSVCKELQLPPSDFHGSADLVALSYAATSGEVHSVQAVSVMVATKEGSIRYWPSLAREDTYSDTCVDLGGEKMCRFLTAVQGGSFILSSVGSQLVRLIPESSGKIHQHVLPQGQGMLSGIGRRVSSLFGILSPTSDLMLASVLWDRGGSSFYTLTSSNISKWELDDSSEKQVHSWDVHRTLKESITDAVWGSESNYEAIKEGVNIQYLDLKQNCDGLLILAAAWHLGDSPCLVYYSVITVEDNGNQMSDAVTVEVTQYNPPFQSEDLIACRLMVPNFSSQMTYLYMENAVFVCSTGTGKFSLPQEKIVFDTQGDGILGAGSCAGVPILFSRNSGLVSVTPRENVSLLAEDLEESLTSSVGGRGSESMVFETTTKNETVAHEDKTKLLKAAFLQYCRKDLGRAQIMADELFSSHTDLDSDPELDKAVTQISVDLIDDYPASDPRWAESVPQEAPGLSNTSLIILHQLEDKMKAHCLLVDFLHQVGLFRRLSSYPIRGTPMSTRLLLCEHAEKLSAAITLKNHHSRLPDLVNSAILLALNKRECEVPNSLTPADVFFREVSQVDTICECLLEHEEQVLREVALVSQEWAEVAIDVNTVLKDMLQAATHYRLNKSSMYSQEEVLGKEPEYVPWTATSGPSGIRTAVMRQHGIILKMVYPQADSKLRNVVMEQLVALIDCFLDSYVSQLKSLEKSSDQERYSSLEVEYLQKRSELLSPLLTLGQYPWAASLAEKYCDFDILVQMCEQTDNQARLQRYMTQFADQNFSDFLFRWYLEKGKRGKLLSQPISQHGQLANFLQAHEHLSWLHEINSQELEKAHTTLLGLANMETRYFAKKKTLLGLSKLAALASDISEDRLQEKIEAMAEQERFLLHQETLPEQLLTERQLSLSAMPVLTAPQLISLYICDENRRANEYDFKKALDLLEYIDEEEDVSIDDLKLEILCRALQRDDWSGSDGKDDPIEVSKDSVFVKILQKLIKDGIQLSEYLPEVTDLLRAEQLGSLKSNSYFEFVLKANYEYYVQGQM
Assay: co-IP; immunoprecipitation with anti-Nup133 antibody from male and female mouse OPCs under normoxia (3% O2) and hyperoxia (24 h 80% O2); western blot for ERα

For “estrogen receptor alpha (from UniProt P19785 1-599)”, the binding was “binds”.
